# Values joined by “and” are separate entries in the source; they are usually repeats but may differ in a detail not shown here. Equal values may be shown once. For some assays here: Plain letter strings leave the end groups untold.
# What was measured:
# [1] = general procedure: Fmoc solid-phase peptide synthesis in flow; NovaPEG Rink Amide resin; conditions: whole synthesis
# [2] = general procedure: Fmoc solid-phase peptide synthesis in flow; PEG resin; Rink amide, HMPB, photolinker or MeDbz linker; conditions: for isolated yield: overall
# [3] = general procedure: Fmoc solid-phase peptide synthesis in flow; photolinker on NovaPEG Amino resin; conditions: whole synthesis, scale 124 µmol
# [4] = general procedure: Fmoc solid-phase peptide synthesis in flow; Rink amide + Photolinker on NovaPEG resin; conditions: whole synthesis
# [5] = general procedure: Fmoc solid-phase peptide synthesis in flow; NovaPEG Rink Amide; conditions: whole synthesis
# [6] = Fmoc solid-phase peptide synthesis in flow; PEG resin; Rink amide, HMPB, photolinker or MeDbz linker; conditions: whole synthesis
# [7] = general procedure: Fmoc solid-phase peptide synthesis in flow; HMPB ChemMatrix resin; conditions: whole synthesis
# [8] = general procedure: Fmoc solid-phase peptide synthesis in flow; HMPB + Rink double linker; conditions: whole synthesis
# [9] = general procedure: Fmoc solid-phase peptide synthesis in flow; Photolinker on NovaPEG resin; conditions: whole synthesis, 214 nm, scale 24 µmol
# [10] = general procedure: Fmoc solid-phase peptide synthesis in flow; MeDbz linker on NovaPEG resin; conditions: whole synthesis
# [11] = general procedure: Fmoc solid-phase peptide synthesis in flow; low loading resin (0.20 mmol/g); conditions: whole synthesis, UHPLC AUC at 214 nm; LCMS; run 1
# [12] = general procedure: Fmoc solid-phase peptide synthesis in flow; NovaPEG Rink Amide resin (0.20 mmol/g); conditions: whole synthesis, scale 30 µmol
# [13] = general procedure: Fmoc solid-phase peptide synthesis in flow; NovaPEG Rink Amide resin (0.41 mmol/g); conditions: whole synthesis, scale 21 µmol; run 2
# [14] = general procedure: Fmoc solid-phase peptide synthesis in flow; Rink amide linker on HMPB ChemMatrix resin; conditions: whole synthesis
# [15] = coupling step, UHPLC AUC at 214 nm, LCMS
# [16] = whole synthesis, UHPLC AUC at 214 nm, LCMS
# [17] = whole synthesis, 214 nm, scale 21 µmol
# [18] = whole synthesis, AUC at 214 nm, run 2
# [19] = whole synthesis, UHPLC AUC at 214 nm, LCMS, run 2
substance,measurement,setting,value
H2N- KGAIIGLMVG GVVIA-CONH2,crude mass,[1]; scale 20 µmol,4.7 mg
same,crude LC-MS purity,"[2]; whole synthesis, 214 nm",43% purity
same,crude HPLC purity,"[2]; whole synthesis, AUC at 214 nm",33% purity
RRRRRRRRR,crude mass,[3],8.6 mg
same,crude LC-MS purity,"[2]; whole synthesis, 214 nm",52% purity
H2N-KGAIIGLMVG GVVIARRRRR R-CONH2,crude mass,[1]; scale 21 µmol,4.4 mg
same,crude LC-MS purity,"[2]; whole synthesis, 214 nm",62% purity
same,crude HPLC purity,"[2]; whole synthesis, AUC at 214 nm",48% purity
H2N-KGAIIGLMVG GVVIA-MeNbz -RRRRRR-CONH2,crude HPLC purity,"[2]; whole synthesis, 214 nm",73%
same,crude LC-MS purity,"[2]; whole synthesis, 214 nm",70%
same,final HPLC purity,"[2]; whole synthesis, 214 nm",>95%
same,final LC-MS purity,"[2]; whole synthesis, 214 nm",93%
same,isolated yield,[2]; whole synthesis,7%
same,crude mass,"[2]; whole synthesis, scale 10 µmol",5.9 mg
H2N-YLRIVQCRSV EGSCGFRRRR RR-CONH2,crude HPLC purity,"[2]; whole synthesis, 214 nm",73% purity by UHPLC
H2N-FREAKAEGCD ITIILSRRRR RR-CONH2,crude mass,[4]; scale 8.9 µmol,0.70 mg
same,crude HPLC purity,"[2]; whole synthesis, 214 nm",70% purity by UHPLC
same,crude LC-MS purity,"[2]; whole synthesis, 214 nm",62% purity by LCMS
same,crude HPLC purity,"[2]; whole synthesis, AUC at 214 nm",62% by UHPLC
H2N- WFFTLISTIM RRRRRR-CONH2,crude HPLC purity,"[2]; whole synthesis, 214 nm",77% purity by UHPLC
H2N-HAEGTFTSDVSSYLEGQAAKEFIAWLVKGRRRRRRR-CONH2,crude HPLC purity,"[2]; whole synthesis, 214 nm",84% purity by UHPLC
H2N-HAEGTFTSDVSSYLEGQAAKEFIAWLVKGRRRRRRRRRR-CONH2,crude mass,[5]; scale 20 µmol,6.7 mg
same,crude LC-MS purity,"[2]; whole synthesis, 214 nm",85%
same,crude HPLC purity,"[2]; whole synthesis, AUC at 214 nm",66%
H2N-MPLNVSFTNRNYDLDYDSVQPYFYCDEEENFYQQQQQSELQPPAPSEDIWKKFELLPTPPLSPSRRSGLCSPSYVAVTPFSLRGCNDGGGGSFSTADQLEMVTELLGGDMVNQSFICDPDDETFIKNIIIQDCMWSGFSAAAKRRRRRR -CONH2,crude HPLC purity,"[2]; coupling step, 214 nm",17%
same,final HPLC purity,"[2]; coupling step, 214 nm",96%
same,crude LC-MS purity,[2]; [15],39%
same,final HPLC purity,[2]; [15],96%
same,final LC-MS purity,[2]; [15],92%
same,step yield,"[2]; coupling step, isolated yield",35%
H2N-YLRIVQCRSV EGSCGFPPPP PP-CONH2,crude mass,[5]; scale 21 µmol,6.6 mg
same,crude HPLC purity,"[2]; whole synthesis, 214 nm",28% purity by UHPLC
same,crude LC-MS purity,"[2]; whole synthesis, 214 nm",33% purity by LCMS
H2N-NDGGGGSFSTADQLEMVTELLGGDMVNQSFICDPDDETFIKNIIIQDCMWSGFSAAAKRRRRRR-CONH2,crude mass,[1]; scale 30 µmol,14 mg
same,crude LC-MS purity,"[2]; whole synthesis, 214 nm",39% purity
same,crude HPLC purity,"[2]; whole synthesis, AUC at 214 nm",27% purity
H2N-YLRIVQCRSV EGSCGFQQQQ QQ-CONH2,crude mass,[5]; scale 21 µmol,5.9 mg
same,crude HPLC purity,"[2]; whole synthesis, 214 nm",77% purity by UHPLC
same,crude LC-MS purity,"[2]; whole synthesis, 214 nm",69% purity by LCMS
H2N-HAEGTFTSDVSSYLEGQAAKEFIAWLVKGRRRR-CONH2,crude mass,[5]; scale 22 µmol,17 mg
same,crude LC-MS purity,"[2]; whole synthesis, 214 nm",62%
same,crude HPLC purity,"[2]; whole synthesis, AUC at 214 nm",60%
H2N-TTCCPSIVARSNFNVCRLPGTPEALCATYTGCIIIPGATCPGDYAN-CONH2,crude HPLC purity,"[2]; whole synthesis, 214 nm",approx. 7%
same,crude mass,"[2]; whole synthesis, scale 31 µmol",7.6 mg
H2N-FIKNIIIQDC MWSGFSAAAK RRRRRR-CONH2,crude HPLC purity,"[2]; whole synthesis, 214 nm",76% purity by UHPLC
H2N-TTCCPSIVARSNFNVCRLPGTPEALCATYTGCIIIPGATCPGDYAN-MeNbz- RRRRRR-CONH2,crude HPLC purity,"[2]; whole synthesis, 214 nm",approx. 19%
same,crude mass,"[2]; whole synthesis, scale 31 µmol",3.3 mg
H2N-MPLNVSFTNRNYDLDYDSVQPYFYCDEEENFYQQQQQSELQPPAPSEDIWKKFELLPTPPLSPSRRSGLCSPSYVAVTPFSLRG-MeNbz -RRRRRR-CONH2,crude HPLC purity,[6]; 214 nm,39%
same,crude LC-MS purity,[6]; 214 nm,40%
same,final HPLC purity,[6]; 214 nm,>95%
same,final LC-MS purity,[6]; 214 nm,95%
same,isolated yield,[6]; overall,0.5%
Aβ42[27–42]-MeNbz-Arg6,crude HPLC purity,[2]; [16],73%
same,final HPLC purity,[2]; [16],96%
same,isolated yield,[2]; whole synthesis,7%
H2N-FREAKAEGCD ITIILS-CONH2,crude mass,[5]; scale 22.5 µmol,3.0 mg
same,crude mass,[5]; scale 48 µmol,1.6 mg
same,crude LC-MS purity,"[7]; 214 nm, run 5",27% purity by LCMS
same,crude HPLC purity,"[7]; AUC at 214 nm, run 1",19% purity by UHPLC
same,crude mass,[7]; scale 49 µmol,1.4 mg
same,crude mass,[1]; scale 20 µmol,3.7 mg
same,difficulty met,[8],drastically increased aggregation in Barstar[75–90] and very low peptide purity
same,crude LC-MS purity,[9],37% purity by LCMS
same,crude LC-MS purity,"[10]; 214 nm, run 6",38% purity by LCMS
same,crude mass,[10]; scale 40 µmol,6.8 mg
same,crude HPLC purity,[11],77%
same,crude HPLC purity,[12]; 214 nm,77%
same,crude LC-MS purity,[12]; 214 nm,79%
same,crude mass,[12],4.5 mg
same,crude mass,[13],3.8 mg
same,crude LC-MS purity,"[4]; 214 nm, run 7",8% purity by LCMS
same,crude LC-MS purity,"[14]; 214 nm, run 2",2% purity by LCMS
same,crude mass,[14]; scale 12 µmol,1.4 mg
same,crude HPLC purity,[2]; [17],55%
same,crude LC-MS purity,[2]; [17],55%
same,crude HPLC purity,"[2]; whole synthesis, 214 nm, run 1",63%
same,crude LC-MS purity,"[2]; whole synthesis, 214 nm, run 1",62%
same,crude HPLC purity,"[2]; whole synthesis, 214 nm, run 2",44% purity
same,crude LC-MS purity,"[2]; whole synthesis, 214 nm, run 3",39% purity
same,crude LC-MS purity,"[2]; whole synthesis, 214 nm, run 4",46% purity
same,crude HPLC purity,[2]; [18],38% purity
same,crude LC-MS purity,"[2]; whole synthesis, UHPLC AUC at 214 nm, LCMS, run 1",37%
same,crude HPLC purity,[2]; [19],19%
same,crude LC-MS purity,[2]; [19],38%
same,crude HPLC purity,"[2]; whole synthesis, UHPLC AUC at 214 nm, LCMS, run 3",62%
same,crude HPLC purity,"[2]; whole synthesis, UHPLC AUC at 214 nm, LCMS, run 4",38% and 55%
same,crude mass,"[2]; whole synthesis, scale 21 µmol, run 1",3.6 mg
H2N-RRRRRRHAEGTFTSDVSSYLEGQAAKEFIAWLVKGR-CONH2,crude mass,[5]; scale 21 µmol,18 mg
same,crude LC-MS purity,"[2]; whole synthesis, 214 nm",67%
same,crude HPLC purity,"[2]; whole synthesis, AUC at 214 nm",65%
H2N-FREAKAEGCD ITIILSPPPP EK-CONH2,difficulty met,[2]; whole synthesis,"both NBDY sequences increased aggregation, leading to decreased crude purity"
same,crude LC-MS purity,"[2]; whole synthesis, 214 nm",46%
same,crude HPLC purity,[2]; [16],50%
same,crude mass,"[2]; whole synthesis, scale 21 µmol",4.0 mg
H2N-FREAKAEGCD ITIILSKKKK KK-CONH2,crude mass,[5]; scale 21 µmol,4.0 mg
same,crude LC-MS purity,"[2]; whole synthesis, 214 nm",33%
same,crude HPLC purity,"[2]; whole synthesis, AUC at 214 nm, run 1",33%
same,crude HPLC purity,[2]; [18],21%
same,crude HPLC purity,[2]; [16],47%
same,crude LC-MS purity,[2]; [16],43%
same,crude mass,"[2]; whole synthesis, scale 41 µmol",4.0 mg
H2N-FREAKAEGCD ITIILSPPPP PP-CONH2,crude mass,[5]; scale 21 µmol,3.0 mg
same,crude HPLC purity,"[2]; whole synthesis, 214 nm",58% purity by UHPLC
same,crude LC-MS purity,"[2]; whole synthesis, 214 nm",56% purity by LCMS
H2N-FREAKAEGCD ITIILS-MeNbz -RRRRRR-CONH2,crude HPLC purity,"[2]; whole synthesis, 214 nm",58%
same,crude LC-MS purity,"[2]; whole synthesis, 214 nm",50%
same,crude mass,"[2]; whole synthesis, scale 10 µmol",1.5 mg
